Assay results from PubChem BioAssay AID1347076 (National Center for Advancing Translational Sciences (NCATS), 2019).
The campaign covered roughly 400,000 compounds. About 13,000 (3.2%) were called active. Inconclusive means that the source gave no clear call. Such entries were picked first, then a sample of the others. Calls come from the whole dose curve; as a rule, active = well fitted cell-killing curve with a large enough effect; inconclusive = small, poorly fitted or top-dose-only effect, or effect the other way; inactive = flat fitted curve, though single readings scatter. A potency beside an inconclusive call is a rough fit, not a confirmed value.

assay: qHTS assay for MDR1-selective chemotherapeutics: Primary screen using the drug-selected MDR subline cells KB-V1; details: KB-V1 MDR cells viability, CellTiter-Glo, 72 h; activity change, negative = cytotoxicity: at 46.1 µM (top of the series); note: nearly all actives have a fitted effect of over 60% in size
Procedure, shortened: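 Following 72 h at 37 degrees C with compound, KB-V1 cell viability was read by CellTiter-Glo luminescence, medium being phenol-red-free DMEM plus 10% FBS; concentration-response parameters came from normalized, curve-fitted qHTS data.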
% is set by controls: 0 for no effect and ±100 for the full control effect; potency is the fitted concentration of half-maximal effect.

Row | Structure (SMILES) | Potency | activity change, negative = cytotoxicity
1 | Cc1nc(-c2ccc(S(=O)(=O)Oc3ccccc3Cl)s2)cs1 | inconclusive: 20.6 µM [cytotoxic, single point] | 
2 | O=C1CCNc2cc3ccccc3cc21 | inconclusive: 23.1 µM [cytotoxic, single point] | 
3 | Cc1ccc(C)c(NC(=O)CSc2nc3nc(-c4cccs4)cc(C(F)(F)F)c3c(=O)[nH]2)c1 | inactive | 
4 | COCCN(CCOC)c1ncc(Cl)c(C(=O)c2c(C)cc3ccccn23)n1 | inconclusive: 20.6 µM [cytotoxic, partial curve] | 
5 | CCc1ccc2c(c1)NC(=O)C2(C)Cc1ccc(Cl)s1 (stereo unspecified) | inconclusive: 13 µM [cytotoxic, partial curve, poor fit] | 
6 | Nc1ccc(N=Nc2ccccc2Cl)c(N)n1 |  | inconclusive: -58.5%
7 | COC(=O)c1ccc(CSc2nc3ccc(Cl)cc3[nH]2)o1 | inconclusive: 20.6 µM [cytotoxic, single point] | 
8 | CCOC(=O)CCc1nn(C)c(=O)c2ccccc12 | inconclusive: 20.6 µM [cytotoxic, single point] | 
9 | CCOC(=O)Cc1csc(SCC(=O)Nc2cccc(C#N)c2)n1 | inconclusive: 11.6 µM [cytotoxic, partial curve] | 
10 | CN(C)C(=O)CSc1cccc2cccnc12 | inconclusive: 29.1 µM [cytotoxic, single point] | 
11 | COc1ccc(/C(C)=N/NC(=O)CCC(=O)Nc2ccc(Cl)cc2Cl)c(OC)c1 | inconclusive: 18.4 µM [cytotoxic, partial curve, poor fit] | 
12 | CCCCCCCCC(c1nc2ccccc2[nH]1)N1CCN=C1c1cc2ccccc2[nH]1 (stereo unspecified) | inconclusive: 29.1 µM [cytotoxic, single point] | 
13 | FC(F)(Cl)c1nnc2ccc(Cl)nn12 | inconclusive: 20.6 µM [cytotoxic, single point] | 
14 | C=CCn1cc(C(=O)N2CCc3ccccc3C2)c(=O)c2cc(S(=O)(=O)N(CC)CC)ccc21 | inactive | 
15 | O=C(NC1CCCCC1)c1ccccc1C(F)(F)F | inactive | 
16 | Cc1ccccc1C(=O)Nc1nnc(CC(=O)N/N=C/c2cn(Cc3ccccc3)c3ccccc23)s1 | inactive | 
17 | CC(C)CNC(=S)N(Cc1ccco1)Cc1cc2cc3c(cc2[nH]c1=O)OCCO3 | inconclusive: 9.2 µM [cytotoxic, partial curve, poor fit] | 
18 | N#Cc1ccc(CSc2nnc(-c3cccs3)n2-c2ccccc2)cc1 | inconclusive: 6.51 µM [cytotoxic, partial curve, poor fit] | 
19 | O=c1[nH]c2ccccc2cc1CN(Cc1ccco1)S(=O)(=O)c1ccccc1 | inconclusive: 5.8 µM [cytotoxic, partial curve] | 
20 | CC1Oc2ccccc2N(CC(=O)NCCc2ccccc2)C1=O (stereo unspecified) | active: 16.4 µM | 
21 | Cc1ccc(OCC(=O)Nc2ccccc2-c2ccccc2NC(=O)COc2ccc(C)cc2)cc1 | inconclusive: 2.59 µM [cytotoxic, full curve] | 
22 | O=C(CCS(=O)(=O)c1ccccc1)NC1CCCC1 | inconclusive: 32.6 µM [rising, partial curve, poor fit] | 
23 | Oc1ccc(/C=N/Nc2ccnc3cc(Cl)ccc23)cc1O | inactive | 
24 | CC(=O)N1C(C)c2ccccc2C(C)(C)CC12CCCCC2 (stereo unspecified) | inconclusive: 23.1 µM [cytotoxic, single point] | 

Row | Structure (SMILES) | Potency | activity change, negative = cytotoxicity
25 | CCOC(=O)N1CCN(C(=O)c2ccc(-n3c(=S)[nH]c4ccccc4c3=O)cc2)CC1 | inconclusive: 18.4 µM [rising, partial curve, poor fit] | 
26 | Cc1ccccc1C(=O)NC(=S)Nc1ccc(N2CCN(C(=O)c3ccccc3)CC2)cc1 | inconclusive: 1.46 µM [cytotoxic, full curve] | 
27 | Cc1csc(NC(=O)c2cc3c(s2)CCCC3)n1 | inactive | 
28 | CCN(C(=O)COC(=O)c1cccnc1SC)c1c(N)n(Cc2ccccc2)c(=O)[nH]c1=O | inactive | 
29 | COc1ccc(S(=O)(=O)Nc2ccc(Cl)cn2)c(C)c1C | active: 23.1 µM | 
30 | CNc1oc(-c2ccccc2Cl)nc1C#N | active: 20.6 µM | 
31 | O=C(N/N=C/c1ccco1)C1CC1(c1ccccc1)c1ccccc1 (stereo unspecified) | active: 20.6 µM | 
32 | O=C(NCc1cccs1)c1noc2c1CCCCC2 | inconclusive: 29.1 µM [cytotoxic, single point] | 
33 | COc1cccc(-c2cnc3c(NC=O)cc(-c4cc(OC)c(OC)c(OC)c4)cn23)c1 | inconclusive: 1.84 µM [cytotoxic, full curve] | 
34 | O=C(CNc1n[nH]c(=O)[nH]c1=O)N/N=C/c1cccnc1 | inactive | 
35 | NC(=O)c1cc(Cl)ccc1OCC(=O)NC1CC1 | inactive | 
36 | COc1ccc(C2/C=C\CN(C(=O)NC(C)C)CC(=O)N2Cc2ccc(F)cc2)cc1 (stereo unspecified) | inconclusive: 0.82 µM [cytotoxic, full curve] | 
37 | CCN(CC)S(=O)(=O)c1cccc(C(=O)NC(C(=O)NNC(=O)c2ccccc2F)C(C)C)c1 (stereo unspecified) | inconclusive: 7.31 µM [cytotoxic, partial curve, poor fit] | 
38 | CC[C@H]1CN2CCc3cc(OC)c(OC)cc3[C@@H]2C[C@@H]1C[C@H]1NCCc2cc(OC)c(OC)cc21 | active: 5.17 µM | 
39 | COc1ccccc1-c1cc(C(F)(F)F)nc(S(=O)(=O)CCCC(=O)N2CCOCC2)n1 | inconclusive: 29.1 µM [cytotoxic, single point] | 
40 | CC(=O)Nc1c(-c2ccccc2)nc2cc(C)ccn12 | inactive | 
41 | COc1ccc(-c2coc3cc4oc(=O)cc(-c5ccccc5)c4cc23)cc1F | inconclusive: 2.06 µM [cytotoxic, full curve, poor fit] | 
42 | COc1ccc(N2C(=O)CC(N3CCN(c4nc5ccccc5s4)CC3)C2=O)cc1 (stereo unspecified) | inconclusive: 18.4 µM [cytotoxic, single point] | 
43 | Cc1cc(C)n(-c2cc(N3CCN(C(=O)c4ccc(C(C)(C)C)cc4)CC3)ccc2[N+](=O)[O-])n1 | inconclusive: 25.9 µM [cytotoxic, partial curve, poor fit] | 
44 | O=C(NCCC1=CCCCC1)C1CCC(CNS(=O)(=O)c2ccccc2)CC1 (stereo unspecified) | active: 8.2 µM | 
45 | COc1cc(-c2noc(-c3ccc(N4CCN(C)CC4)c([N+](=O)[O-])c3)n2)cc(OC)c1OC | inactive | 
46 | COc1cc(C2c3cc4c(cc3OC(N3CCOCC3)C2C)OCO4)cc(OC)c1OC(C)=O (stereo unspecified) | inconclusive: 16.4 µM [cytotoxic, single point] | 
47 | Cn1c(SCC(=O)N/N=C/c2ccc([N+](=O)[O-])s2)nnc1-c1ccc(Cl)cc1 | inactive | 
48 | c1nc(NCCN2CCOCC2)c2c3c(sc2n1)CCCCC3 | inactive | 

Row | Structure (SMILES) | Potency | activity change, negative = cytotoxicity
49 | Cc1cccc(NC(=S)N2CCN(c3cc(C)ccc3C)CC2)c1 | inconclusive: 29.1 µM [rising, single point] | 
50 | CC1CCN(S(=O)(=O)c2cccc(-c3cn4cc(Cl)ccc4n3)c2)CC1 | inactive | 
51 | COc1ccc(NC(=O)C2CSC(C)(C)N2C=O)cc1 (stereo unspecified) | inactive | 
52 | CCc1c(C)sc(NC(=O)c2cc(-c3ccco3)on2)c1C#N | inactive | 
53 | O=Cc1c(NC2CCCCC2)c2ccccc2[nH]c1=O | inactive | 
54 | CN(Cc1cnn(C)c1)Cc1nc(-c2ccc(Cl)cc2)no1 | inconclusive: 29.1 µM [cytotoxic, single point] | 
55 | COc1cccc(-c2nnc3sc(C4CCCCC4)nn23)c1 | active: 3.66 µM | 
56 | Fc1ccccc1N1CCN(c2cnc3ccccc3n2)CC1 | inconclusive: 20.6 µM [cytotoxic, single point] | 
57 | CCOc1ccc(S(=O)(=O)Nc2ccc(C(=O)N(CC)CC(=O)NCc3cccs3)cc2)cc1 | inconclusive: 29.1 µM [rising, single point] | 
58 | Cn1c(/C=C/c2ccc(Cl)cc2)nc2ccccc2c1=O | inconclusive: 32.6 µM [cytotoxic, partial curve, poor fit] | 
59 | O=C(CSc1ncnc2c1oc1ccccc12)Nc1ccc2c(c1)OCCO2 | active: 16.4 µM | 
60 | COc1ccc(N2CCN(c3oc(-c4ccc(OC)c(OC)c4)nc3C#N)CC2)cc1 | inactive | 
61 | Cc1ccc(NC(=O)CSc2nnc(COc3ccc(C#N)cc3)n2-c2ccccc2)cc1C | inconclusive: 9.2 µM [cytotoxic, partial curve, poor fit] | 
62 | C[C@H](NC(=O)C1CC(=O)N(c2ccc3c(c2)OCCO3)C1)C(=O)N1CCC(C(=O)O)CC1 (stereo partly specified) | inconclusive: 0.92 µM [rising, full curve, poor fit] | 
63 | Cc1c(NCc2nc3ccccc3[nH]2)c(=O)n(-c2ccccc2)n1C | inconclusive: 5.8 µM [rising, full curve] | 
64 | COc1ccc(S(=O)(=O)N2CCN(C(=O)CCCN3C(=O)NC4(CCCC4)C3=O)CC2)cc1 | inactive | 
65 | CC(=O)NCC1CCCN(C(=O)c2oc3c(F)cccc3c2C)C1 (stereo unspecified) | inactive | 
66 | COC(=O)C1=C(N)Oc2cc(C)n(Cc3cccnc3)c(=O)c2C1c1ccc(OC)c(OC)c1 (stereo unspecified) | inconclusive: 29.1 µM [rising, single point] | 
67 | CN(C)CCN(C(=O)C1CCN(S(=O)(=O)c2cccs2)CC1)c1nc2c(F)cccc2s1 | inconclusive: 16.4 µM [rising, single point] | 
68 | Cc1ccccc1CN1CCN(C(=O)c2cc(-c3ccncc3)nc3ccccc23)CC1 | inconclusive: 29.1 µM [cytotoxic, single point] | 
69 | CNC(=S)NNC(=O)c1cc(-c2cccnc2)nc2ccccc12 | inconclusive: 9.2 µM [rising, partial curve] | 
70 | OCCNCc1c(OCc2ccc(Cl)cc2)ccc2ccccc12 | inconclusive: 0.651 µM [cytotoxic, full curve, poor fit] | 
71 | Cc1onc(-c2ccccc2Cl)c1C(=O)O/N=C(\N)c1ccccc1 | inconclusive: 23.1 µM [cytotoxic, single point] | 

4 compounds drawn at random from the list so far, as already listed:
Row | Structure (SMILES) | Potency | activity change, negative = cytotoxicity
45 | COc1cc(-c2noc(-c3ccc(N4CCN(C)CC4)c([N+](=O)[O-])c3)n2)cc(OC)c1OC | inactive | 
31 | O=C(N/N=C/c1ccco1)C1CC1(c1ccccc1)c1ccccc1 (stereo unspecified) | active: 20.6 µM | 
2 | O=C1CCNc2cc3ccccc3cc21 | inconclusive: 23.1 µM [cytotoxic, single point] | 
66 | COC(=O)C1=C(N)Oc2cc(C)n(Cc3cccnc3)c(=O)c2C1c1ccc(OC)c(OC)c1 (stereo unspecified) | inconclusive: 29.1 µM [rising, single point] | 
